Assay results reported in article doi:10.1101/2023.01.12.523802.
These are yes or no findings as the source states them, for the method shown. In cells and extracts the contact can be indirect. Tags and fused reporters may be left off the sequences shown.

Molecular target: T1, FLAG-Lin28b (mouse) (UniProt Q45KJ6)
T1 sequence: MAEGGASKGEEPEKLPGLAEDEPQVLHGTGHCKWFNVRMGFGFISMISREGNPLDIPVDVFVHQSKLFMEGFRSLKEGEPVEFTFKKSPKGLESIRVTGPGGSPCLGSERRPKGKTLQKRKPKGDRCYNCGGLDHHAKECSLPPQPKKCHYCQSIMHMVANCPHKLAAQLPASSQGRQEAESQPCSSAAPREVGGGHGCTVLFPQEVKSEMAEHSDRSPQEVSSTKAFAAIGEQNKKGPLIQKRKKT
Assay: co-IP

Substance: TRIM71 protein that lacked the NHL domain (ΔNHL), 3xHA-tagged (human) (domain or fragment)
- binding: no binding
